PubChem BioAssay AID504784 | Drosophila RNAi Screening Center – 2011
The deposit covers about 17,000 reagents; shown is an unselected part of those that have a named target and a result. 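Each column is one replicate's B-score; the combined score over replicates was not deposited, so single values may mislead.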 Further read-outs or replicates are left out here.

Purpose: 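Search for regulators of lipid droplet storage in oleate-fed fly cells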 (primary screen)
Cell system: Drosophila Kc167 embryonic cells
Knock-down reagent: long dsRNA against Drosophila genes, about 250 ng dsRNA per well
Duration: 4 days
Treatment: cells fed 400 µM oleic acid bound to BSA
Measured: 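Cells imaged and segmented; ratio of lipid droplet area to nuclear area, log-transformed, then normalised as a B-score over the screen; higher means more stored lipid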
Scale: droplet/nuclear area B-score: higher = more stored lipid (overstorage)

Against LManII [DRSC01986] the deposit lists droplet/nuclear area B-score, replicate 1 = 1.42.
Pak [DRSC12602] showed droplet/nuclear area B-score, replicate 1 = -0.0217.
After knock-down of Pak [DRSC23302] the results were droplet/nuclear area B-score, replicate 1 = -0.442.
With knock-down of CG17801 [DRSC15273] the results were droplet/nuclear area B-score, replicate 1 = -0.224.
For CG6429 [DRSC06986] the deposit lists droplet/nuclear area B-score, replicate 1 = -1.32.
Depletion of Lcp65Ae [DRSC11212] gave: droplet/nuclear area B-score, replicate 1 = -1.09.
With knock-down of tty [DRSC20588] the results were droplet/nuclear area B-score, replicate 1 = -0.319.
Depletion of CG4045 [DRSC18518] resulted in: droplet/nuclear area B-score, replicate 1 = 0.308.
Depletion of ND-23 [DRSC15526] gave: droplet/nuclear area B-score, replicate 1 = 1.84.
Nle [DRSC00763] scored droplet/nuclear area B-score, replicate 1 = 0.182.
With knock-down of CG14153 [DRSC10155] the results were droplet/nuclear area B-score, replicate 1 = -0.177.
CG14153 [DRSC22595] showed droplet/nuclear area B-score, replicate 1 = -1.89.
Silencing of CG10587 [DRSC11627] resulted in: droplet/nuclear area B-score, replicate 1 = -1.76.
Silencing of ctp [DRSC18758] gave: droplet/nuclear area B-score, replicate 1 = 2.2.
With knock-down of fra [DRSC07621], the record shows droplet/nuclear area B-score, replicate 1 = 0.396.
After knock-down of CG18336 [DRSC06334], the record shows droplet/nuclear area B-score, replicate 1 = -1.81.
CG34281 [DRSC14807] gave droplet/nuclear area B-score, replicate 1 = 1.57.
For Arc42 [DRSC14340], the entry reads droplet/nuclear area B-score, replicate 1 = -2.2.
For Arc42 [DRSC15627] the deposit lists droplet/nuclear area B-score, replicate 1 = 0.877.
Against veg (retired record) [DRSC07714] the deposit lists droplet/nuclear area B-score, replicate 1 = -0.976.
After knock-down of Ku80 [DRSC02699] the results were droplet/nuclear area B-score, replicate 1 = 0.494.
With knock-down of dac [DRSC03518], the screen gave droplet/nuclear area B-score, replicate 1 = -0.273.
Knock-down of Toll-9 [DRSC11776] came out at: droplet/nuclear area B-score, replicate 1 = 1.09.
Silencing of Muc91C [DRSC16297] came out at: droplet/nuclear area B-score, replicate 1 = 0.716.
Knock-down of Muc91C [DRSC21696] resulted in: droplet/nuclear area B-score, replicate 1 = -0.276.
With knock-down of CG15649 [DRSC04240] the results were droplet/nuclear area B-score, replicate 1 = -0.904.
Cpr65Eb [DRSC11026] scored droplet/nuclear area B-score, replicate 1 = 0.00748.
Against sav [DRSC14681] the deposit lists droplet/nuclear area B-score, replicate 1 = -1.68.
Silencing of sav [DRSC14682] resulted in: droplet/nuclear area B-score, replicate 1 = -0.562.
After knock-down of CG18131 [DRSC00517] the results were droplet/nuclear area B-score, replicate 1 = 1.15.
CG18131 [DRSC22983] gave droplet/nuclear area B-score, replicate 1 = -0.391.
Silencing of CG14324 [DRSC14803] came out at: droplet/nuclear area B-score, replicate 1 = 0.676.
CG7744 [DRSC07036] gave droplet/nuclear area B-score, replicate 1 = 1.13.
With knock-down of CG8507 [DRSC16435], the record shows droplet/nuclear area B-score, replicate 1 = 0.0527.
For Phyhd1 [DRSC14911], the entry reads droplet/nuclear area B-score, replicate 1 = -0.683.
After knock-down of pon [DRSC18823], the screen gave droplet/nuclear area B-score, replicate 1 = -0.472.
After knock-down of CG30047 [DRSC05340] the results were droplet/nuclear area B-score, replicate 1 = 1.45.
Silencing of HBS1 [DRSC08544] resulted in: droplet/nuclear area B-score, replicate 1 = 1.12.
For MetRS [DRSC22533], the values are droplet/nuclear area B-score, replicate 1 = -0.00933.
After knock-down of CG13339 [DRSC06373] the results were droplet/nuclear area B-score, replicate 1 = 0.417.

Records listed so far whose gene name starts with A or a:
Arc42 [DRSC14340] — droplet/nuclear area B-score, replicate 1: -2.2
Arc42 [DRSC15627] — droplet/nuclear area B-score, replicate 1: 0.877
